PubChem BioAssay AID1259306, Sanger Institute | 2017
Screen: 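Kinases needed for viability and knock-downs that synergise with BYL719, cetuximab or trametinib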 (primary screen). System: human SNU-C5 colorectal cancer cells. Knock-down reagent: siRNA pool against human genes. Conditions: DMSO vehicle alone, or one anchor drug: BYL719 at 1 µM, cetuximab at 5 µg/ml or trametinib at 10 nM, given 24 h into the assay. Detection: 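Replicate-averaged viability against non-targeting pool control, given as fraction and robust z-score; separate synergy scores for BYL719, cetuximab and trametinib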. Direction: robust z-score, knock-down alone and viability, knock-down alone: higher = more viable cells; synergy score with BYL719: higher = stronger synthetic lethality with BYL719; synergy score with cetuximab: higher = stronger synthetic lethality with cetuximab; synergy score with trametinib: higher = stronger synthetic lethality with trametinib. Rule for the call: 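Essential if knock-down without drug gives a robust z-score under -3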. Calls: active = essential (knock-down alone); inactive = no change alone.
Here is an unselected part of 794 reagents. 11 of them (1.4%) were called active. 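Calls reflect knock-down alone; synergy scores play no part, so knock-downs synergising with a drug can be called no change.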 Unmarked entries are inactive. No viability above 1 is reported: the scale is capped. Reagent sequences are not shown. The record does not give: the amount of reagent, the time to read-out.

no.	gene knocked down	robust z-score, knock-down alone	viability, knock-down alone	synergy score with BYL719	synergy score with cetuximab	synergy score with trametinib
1	STK4 (serine/threonine kinase 4)	0.13	0.882	-0.118	-0.118	-0.115
2	COMMD3 (COMM domain containing 3)	0.678	0.957	0.243	0.128	-0.0734
3	MAP3K21 (mitogen-activated protein kinase kinase kinase 21)	0.041	0.869	-0.0268	-0.0728	0.0435
4	PRKCA (protein kinase C alpha)	0.0454	0.87	0.116	0.0403	0.00311
5	CLK2 (CDC like kinase 2)	0.953	0.995	0.289	0.116	-0.151
6	AKT3 (AKT serine/threonine kinase 3)	-0.556	0.787	0.0703	0.0588	0.0212
7	ACVR1B (activin A receptor type 1B)	0.56	0.941	0.0344	-0.0591	0.0898
8	NEK10 (NIMA related kinase 10)	-0.197	0.837	0.259	0.0717	-0.0233
9	ACVRL1 (activin A receptor like type 1)	0.989	1	0.218	0.203	-0.0215
10	SGK2 (serum/glucocorticoid regulated kinase 2)	0.353	0.912	0.0476	0.0284	0.0578
11	RPS6KB1 (ribosomal protein S6 kinase B1)	0.801	0.974	0.12	-0.0259	0.017
12	PRKCB (protein kinase C beta)	0.829	0.978	0.129	0.177	0.1
13	PAK1 (p21 (RAC1) activated kinase 1)	0.989	1	0.107	0	0.26
14	KCNH8 (potassium voltage-gated channel subfamily H member 8)	0.342	0.911	0.0891	-0.0602	0.138
15	SMC1A (structural maintenance of chromosomes 1A)	-0.305	0.822	0.0973	0.0608	0.00436
16	ULK3 (unc-51 like kinase 3)	-0.673	0.771	-0.106	0.00834	-0.205
17	PIP4K2B (phosphatidylinositol-5-phosphate 4-kinase type 2 beta)	0.174	0.888	0.000996	0.0127	0.124
18	WEE1 (WEE1 G2 checkpoint kinase)	-2.25	0.554	0.0494	-0.00327	0.0457
19	PFKFB2 (6-phosphofructo-2-kinase/fructose-2,6-biphosphatase 2)	0.175	0.888	-0.00712	0.023	-0.0657
20	SRP72 (signal recognition particle 72)	-0.519	0.792	0.195	0.333	0.0173
21	PINK1 (PTEN induced kinase 1)	0.989	1	0.111	0.0345	0.00765
22	CKS2 (CDC28 protein kinase regulatory subunit 2)	0.989	1	0	0	0.0874
23	HK1 (hexokinase 1)	0.824	0.977	0.141	-0.0227	0.121
24	BRWD1 (bromodomain and WD repeat domain containing 1)	-1.26	0.69	0.039	-0.0453	-0.255
25	CDKN1C (cyclin dependent kinase inhibitor 1C)	-0.111	0.848	-0.0771	-0.152	-0.0489
26	NIM1K (NIM1 serine/threonine protein kinase)	0.103	0.878	-0.0405	0.0767	-0.0653
27	TSSK4 (testis specific serine kinase 4)	0.0696	0.873	-0.00728	-0.0229	-0.0826
28	TBK1 (TANK binding kinase 1)	-0.56	0.787	0.0107	-0.063	0.122
29	SIK3 (SIK family kinase 3)	0.415	0.921	0.00451	-0.0791	-0.122
30	NUAK2 (NUAK family kinase 2)	-0.536	0.79	0.12	-0.21	-0.195
31	PCBP1 (poly(rC) binding protein 1)	-0.919	0.737	-0.0519	-0.103	-0.27
32	PIM2 (Pim-2 proto-oncogene, serine/threonine kinase)	0.433	0.923	-0.0228	-0.0765	-0.0294
33	TTBK1 (tau tubulin kinase 1)	-0.488	0.797	-0.0714	-0.0432	-0.0382
34	TGFBR2 (transforming growth factor beta receptor 2)	0.0765	0.874	0.0474	0.0175	0.0666
35	IPPK (inositol-pentakisphosphate 2-kinase)	-1.14	0.706	0.194	0.213	-0.11
36	AK2 (adenylate kinase 2)	0.989	1	0.0278	0	-0.0927
37	PIKFYVE (phosphoinositide kinase, FYVE-type zinc finger containing)	0.436	0.924	0.0228	0.0598	-0.0355
38	PIK3C3 (phosphatidylinositol 3-kinase catalytic subunit type 3)	0.989	1	0.0749	0	-0.018
39	RBM10 (RNA binding motif protein 10)	-0.861	0.745	-0.065	0.19	-0.0617
40	FGFR3 (fibroblast growth factor receptor 3)	0.989	1	0.0318	0.0747	0.0263
41	KIT (KIT proto-oncogene, receptor tyrosine kinase)	-0.336	0.818	0.0163	-0.142	-0.205
42	MAP4K2 (mitogen-activated protein kinase kinase kinase kinase 2)	0.748	0.967	0.0512	-0.0262	-0.000841
43	MAGI1	-1.06	0.718	-0.0124	-0.0413	-0.107
44	AKT2 (AKT serine/threonine kinase 2)	0.585	0.944	0.139	-0.0557	0.134
45	CDKN1B (cyclin dependent kinase inhibitor 1B)	0.989	1	0.119	0	0.0172
46	CDK2 (cyclin dependent kinase 2)	0.354	0.913	0.102	0.122	-0.0746
47	PIP4K2C (phosphatidylinositol-5-phosphate 4-kinase type 2 gamma)	0.326	0.909	0.177	0.187	0.157
48	IP6K1 (inositol hexakisphosphate kinase 1)	0.706	0.961	-0.039	-0.039	-0.0406
49	DYRK3 (dual specificity tyrosine phosphorylation regulated kinase 3)	0.0758	0.874	0.233	0.121	-0.00227
50	IGF2R (insulin like growth factor 2 receptor)	0.821	0.977	0.096	-0.0231	0.00994

Look-ups from the entries so far:
PRKCA (protein kinase C alpha), robust z-score, knock-down alone: 0.0454
PRKCB (protein kinase C beta), synergy score with trametinib → 0.1
